No constants are given. Whether binding was seen depends on the method and setting. Some entries that bind do so weakly or less than the wild type.
Biological target: human CD2 on cells (MOLT-4 human T lymphoblast cells; primary human T-cells; primary human NK cells) (human) (UniProt P06729)
Assay: flow cytometry on primary human T-cells, antibody titration, AF488 secondary, MFI

Chains of the proteins cited; added tags and fusions are not shown. Lines headed by an entry give the natural chain unless they say otherwise; changes in a name come on top.
UniProt P06729: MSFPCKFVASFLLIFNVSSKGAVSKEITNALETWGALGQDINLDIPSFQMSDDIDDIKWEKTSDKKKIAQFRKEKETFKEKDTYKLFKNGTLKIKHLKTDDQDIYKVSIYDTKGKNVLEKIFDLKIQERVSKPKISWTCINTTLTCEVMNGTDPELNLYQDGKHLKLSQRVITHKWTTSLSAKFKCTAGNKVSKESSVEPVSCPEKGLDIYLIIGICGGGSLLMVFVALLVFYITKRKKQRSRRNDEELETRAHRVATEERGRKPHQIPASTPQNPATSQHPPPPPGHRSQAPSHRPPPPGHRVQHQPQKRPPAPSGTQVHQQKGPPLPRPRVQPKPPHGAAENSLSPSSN

B1: RPA-2.10 mIgG1 (antibody, V domains shown)
VH: EVKLVESGGGLVKPGGSLKLSCAASGFTFSSYDMSWVRQTPEKRLEWVASISGGGFLYYLDSVKGRFTISRDNARNILYLHMTSLRSEDTAMYYCARSSYGEIMDYWGQGTSVTVSS
VL: DILLTQSPAILSVSPGERVSFSCRASQRIGTSIHWYQQRTTGSPRLLIKYASESISGIPSRFSGSGSGTDFTLSINSVESEDVADYYCQQSHGWPFTFGGGTKLEIER
binding: binds

Reference: US20200368363A1 (MAGENTA THEERAPEUTICS, published 2020)
